This passage reports activity change, negative = inhibition results from PubChem BioAssay AID2519 (Broad Institute, 2010).

Some of the results follow. Results with a measured potency or affinity are listed apart. Entries without a call are filed as inconclusive in the source.

The test can be described thus: Confirmatory concentration-response of platelet secretion blockers, SFLLRN-triggered plasma, 384-well luminescence (AID 2519). The conditions noted are these: human platelet-rich plasma, SFLLRN dense granule ATP luminescence; at 16 µM (top of the series).

Compound `CC(=O)Nc1ccc(/C=N/NC(=O)CC2CCCCC2)cc1` had an activity change, negative = inhibition of 17.5%.
